Measured values from PubChem BioAssay AID1347426 (Functional Genomics Laboratory (NCATS/FGL), 2020).
Screen size: about 31,000 sequences; about 1,400 (4.5%) were called active.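 Rule for the calls: active = median seed-adjusted z-score above 1 or below -1; inactive = the rest.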 This is one part of the list.

experiment: Novel Modifiers of Survival Motor Neuron (SMN) Protein: Gene Identification via Genome-wide siRNA Screen; settings: HEK293T SMN2-luciferase reporter, siRNA knockdown, 72 h; actives lie on both sides;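 note: luminescence tracks full-length SMN protein made from the SMN2 reporter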
Outline: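 HEK293T cells stably carrying an SMN2 promoter/splicing cassette–luciferase reporter were reverse-transfected with 1 pmol siRNA per well (druggable-genome library, 3 siRNAs per gene) and grown 72 h at 37 °C. Luminescence, normalized to negative-control siRNA and log10-transformed, was scored as MAD.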

Sequence | median seed-adjusted z-score
GCUUCUUCGAGAAACAGAATT against RBMY1F | inactive: 0.2
ACAAGGUCCUGGGAUAUUUTT against ACCN3 | inactive: -0.114
GCUCUGUACAGACUGCUAUTT against FHL2 | inactive: 0.475
GCUCUACCUCUUUUUCAAATT against HM13 | inactive: 0.134
GGAGAUAAGGUUCGACUUATT against AIM2 | inactive: 0.0646
GGCUAUCAGGCAUUUCGAATT against LEPREL1 | inactive: 0.0654
CAGAGACUGUUAUCCAUUUTT against SLC25A36 | inactive: 0.134
CUGUGAUGUUGCUAAAGAATT against CBR4 | inactive: -0.66
GGAACCCUUUGAUCAAUUUTT against ADAMTS7 | inactive: 0.146
CUAUUGAAAAGGUCUUAGATT against CHD2 | inactive: 0.422
GCAUCAAUGUACCUCCACATT against ETV4 | inactive: -0.186
GGCAGUGAAUGGUCUGUAUTT against PDIA6 | inactive: -0.269
CCACAAGUCUGAUUGGUCUTT against SPRY3 | inactive: -0.126
GAUCCAGACAAAAAGAAUUTT against PRSS35 | inactive: -0.0119
GCAGUGCUAUUCCCAGUAATT against ITGA5 | inactive: 0.915
ACUGCAAUCUGUUGCCCAATT against CLIC5 | inactive: 0
CAACAAAAGUUUCAUGCUATT against STK35 | inactive: 0.519
CACUGAACUUCUACACCAATT against ADAMTS9 | inactive: 0.103
GCUUGAUGCUGUAUCGGAATT against MSH3 | inactive: 0.428
AAUACAAACUUGUAAAUCATT against ZIC4 | inactive: 0.512
CAGAUGCUCUGAAUCAUCATT against DCLK2 | inactive: -0.552
GGAUCCUACUGGUAAAACUTT against NUDT5 | inactive: 0.228
GCCUCUACAUCUAGUGAUATT against JMJD1C | inactive: 0.0338

Sequence | median seed-adjusted z-score
GAGUCAUGAUCUCAGCUUUTT against KRTAP9-3 | inactive: -0.184
CAGUUCUGACUUAUAGUGATT against SNAI3 | inactive: -0.195
CGUCUGGAUCGAGUACUAUTT against CACNG1 | inactive: -0.452
CGAGCAAUCGAGAUCUACATT against NAPA | inactive: -0.563
CAGUGUAUGUCAAACAUAATT against AP3M2 | inactive: 0.327
GGAUCUGACAGACAAUGAUTT against ABCC3 | inactive: -0.549
GGAAACAUGGUUAAUCUAUTT against KCNN3 | inactive: -0.625
GGAACGAGGCAGAUAUGGATT against NMNAT2 | active: -1.58
GGACCAUAGAUGUUACCGATT against DHX30 | inactive: 0.335
CGCUGACCGCAUGCAGAAATT against ACTA1 | inactive: -0.103
CAGCUAUACAGGAAUUAUUTT against SLC25A16 | inactive: 0.0479
GCUUCUAUAUUCAUGCUAATT against DDX6 | active: 1.12
GCUAUGGUGCUGUCGCUUATT against RHOXF2 | inactive: -0.331
AAACUUUUGGGAAACAGUATT against RAB28 | inactive: 0.114
GAACGAAGGUUUCUUGGUUTT against B3GNT1 | inactive: 0.0931
GCUCAGAAGCAGUAAUGCATT against PQBP1 | active: -1.12
GUAGUUCAGUUGCUCGAGATT against ATP6V0A4 | inactive: -0.141
GAAUGUGCCAAGUGUAAGATT against SIRT6 | inactive: 0.0126
GCUGCUUCGUGGAAGACCATT against TMPRSS3 | inactive: -0.554
CCAAAUACAUCGCAUUAGATT against GTPBP4 | active: 1.01
CAAAGGCGAUAACAUCUAUTT against UBE2E1 | inactive: 0.888
GACGAGUUCUUUAUGCUUATT against MGST3 | inactive: -0.0509
GAGAAGAUCCUAAAUGAGATT against PLK3 | inactive: -0.116

Sequence | median seed-adjusted z-score
CAAGGUCAUUAAUAAGGAUTT against CST5 | inactive: 0.466
GAACGGCUACGAAAAUCCATT against APP | inactive: 0.0204
GGAGCUCCAUGGGAUAGAATT against PSMB9 | inactive: -0.788
GACUUCCAGAUGUUACAAATT against NMT2 | inactive: 0.494
CAAACUAUCUCUGAAAAUATT against TRYX3 | active: 2.3
GGACUGAUUGGACUCCCAUTT against TNFRSF11A | inactive: -0.0833
GGAGUACCACUUUAUCUCATT against MPP1 | inactive: -0.0762
GGACCAACUUCUACGCAGATT against AARS2 | inactive: -0.52
GGUAUUCCGCUGGAAAGUATT against NFIA | inactive: -0.268
CCAUCUAUCGCAACGACAATT against RAB3A | inactive: -0.0787
CCAAGGUGGUGUUCAUUGATT against NFATC4 | inactive: 0
GAGAAUUUUAUAGACCGUATT against HS3ST2 | inactive: 0.133
GGAUCUUCAAAGUCACGAATT against CACNA1B | inactive: 0.0963
GGGUCCUCUUGGAACUCAATT against TPBG | inactive: -0.128
CAAGUUCCUUGGAAAUAAATT against LPCAT3 | inactive: -0.388
GGGUCAAGAUCGAGGAUAATT against MYOM3 | inactive: -0.012
GCAGGAAAGAGAUCGAAGATT against RANBP1 | inactive: 0.545
GAAUGAUGCGUGAUCGUGATT against G3BP2 | inactive: -0.336
CACCUACGAUAGCUACUAUTT against NKTR | active: -1.1
AGAACCUGCUUCUCAAGAATT against STAT6 | inactive: 0.28
CGGUCUAACCUCUAUCGGATT against PPT2 | inactive: 0.0334
GGCAAAACUGUUCCGAUUUTT against RANBP1 | inactive: 0.545

Copied from the entries so far for reference:
Sequence | median seed-adjusted z-score
CAGAGACUGUUAUCCAUUUTT against SLC25A36 | inactive: 0.134
CUGUGAUGUUGCUAAAGAATT against CBR4 | inactive: -0.66
